From PubChem BioAssay AID2417 (National Center for Advancing Translational Sciences (NCATS), 2010)
The whole screen tested about 140,000 compounds, of which about 4,300 (3.1%) were called active. Inconclusive means that the source gave no clear call. Such entries were picked first, then a sample of the others.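 The calls were made as follows: active = readout at or below -70, meaning at least 70% loss of cells showing the perinucleolar compartment, a nuclear body marking cancer cells; inconclusive = readout between -30 and a set limit; inactive = the rest.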

Experiment: High Content Assay for Compounds that inhibit the Assembly of the Perinucleolar Compartment;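 also: plate controls were DMSO wells for no effect and camptothecin positive control wells for full effect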
Settings: PC3M PTB-GFP, PNC prevalence imaging, 16 h; at 10 µM; stronger effect = lower value
Outline: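 Compounds are pinned in duplicate onto adhered PC3M cells stably expressing GFP-tagged PTB and incubated 16 h at 37 C. Cells are then fixed, nuclei stained with Hoechst, and PNC-positive cells counted.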

Row | Structure (SMILES) | activity change (PNC), negative = inhibition
1 | OCn1ncn(-c2ccccc2)c1=S | inactive: -23%
2 | C(=N\c1nc2ccccc2n1CCN1CCCCC1)/c1ccc2c(c1)OCO2 | inconclusive: -38.8%
3 | CCN(CC)CCN(Cc1cc2cc3c(cc2[nH]c1=O)OCCO3)C(=O)NC1CCCCC1 | inconclusive: -30.8%
4 | O=C(CN1CCC(NC(=O)c2ccccc2)CC1)NCc1ccccc1F | inactive: -22.1%
5 | N#C/C(=C1\CCCN1)c1nc(-c2ccccc2)cs1 | inconclusive: -50.4%
6 | O=C(Nc1ccc(Cl)cc1)N(Cc1cccnc1)Cc1ccco1 | inconclusive: -68.1%
7 | CCOC(=O)c1cc2occc2n1CC(=O)N1CCCc2ccccc21 | active: -83.6%
8 | CCOC(=O)C1=C(N)n2c(s/c(=C\c3cccs3)c2=O)=C(C(=O)OCC)C1c1cccs1 (centres undefined) | inconclusive: -30.4%
9 | Cc1ccc(NC(=O)c2ccccc2-c2ccccc2C(=O)O)cc1 | inconclusive: -44.4%
10 | O=C(CN1CCN(c2ccc(F)cc2)CC1)c1ccc2c(c1)OCO2 | inconclusive: -35.1%
11 | O=C(Cc1cccs1)Nc1cccc(-c2nc3cc4ccccc4cc3[nH]2)c1 | inactive: -16%
12 | C=CCc1ccccc1OCC(O)CN1CCN(c2ccc(C)cc2)CC1 (centres undefined) | inconclusive: -50.5%
13 | Cc1ccccc1C(=O)c1c[nH]c(C(=O)NCc2cccs2)c1 | inactive: 39.1%
14 | C/C(N)=C(/C#N)C(=O)COC(=O)c1cc(C)n(-c2ccc(F)cc2)c1C | active: -129%
15 | Cc1cc(-c2csc(NC(=O)c3ccc(=O)n(C)n3)n2)c(C)n1CC1CCCO1 (centres undefined) | inconclusive: -47.2%
16 | O=C1OCCC1S(=O)(=O)c1ccc2ccccc2c1 (centres undefined) | inactive: -18.2%
17 | COCCOC(=O)c1[nH]c2c(c1C)C(=O)CC(c1cc(OC)ccc1OC)C2 (centres undefined) | inactive: -12.2%
18 | CC1(C)NC(=O)N(CC(=O)OCC(=O)Nc2cc(S(=O)(=O)N3CCCCCC3)ccc2Cl)C1=O | inconclusive: -42.1%
19 | O=C(OCC1OC2OC3(CCCCC3)OC2C2OC3(CCCCC3)OC12)c1ccccc1 (centres undefined) | inactive: -20.9%
20 | CC1=C(C(=O)Nc2ccc(C)cc2C)C(c2ccc(C)o2)NC(=O)N1 (centres undefined) | inconclusive: -66.8%

Molecules above that have sulfur (eight):
Row | Structure (SMILES) | activity change (PNC), negative = inhibition
1 | OCn1ncn(-c2ccccc2)c1=S | inactive: -23%
5 | N#C/C(=C1\CCCN1)c1nc(-c2ccccc2)cs1 | inconclusive: -50.4%
8 | CCOC(=O)C1=C(N)n2c(s/c(=C\c3cccs3)c2=O)=C(C(=O)OCC)C1c1cccs1 (centres undefined) | inconclusive: -30.4%
11 | O=C(Cc1cccs1)Nc1cccc(-c2nc3cc4ccccc4cc3[nH]2)c1 | inactive: -16%
13 | Cc1ccccc1C(=O)c1c[nH]c(C(=O)NCc2cccs2)c1 | inactive: 39.1%
15 | Cc1cc(-c2csc(NC(=O)c3ccc(=O)n(C)n3)n2)c(C)n1CC1CCCO1 (centres undefined) | inconclusive: -47.2%
16 | O=C1OCCC1S(=O)(=O)c1ccc2ccccc2c1 (centres undefined) | inactive: -18.2%
18 | CC1(C)NC(=O)N(CC(=O)OCC(=O)Nc2cc(S(=O)(=O)N3CCCCCC3)ccc2Cl)C1=O | inconclusive: -42.1%

Additional records.

Row | Structure (SMILES) | activity change (PNC), negative = inhibition
21 | Cc1cc(NC(=O)Nc2cccs2)no1 | inconclusive: -32.5%
22 | CCN1C(=O)c2cccc3c(S(=O)(=O)N(C(=O)c4ccncc4)c4ccc(OC)cc4)ccc1c23 | active: -84.8%
23 | CCOC(=O)c1ccccc1NC(=O)Cn1c(-c2nonc2N)nc2ccccc21 | inconclusive: -78.5%
24 | CC(C)CNC(=O)C(=O)NNC(=O)C1CCCCC1 | inconclusive: -50.8%
25 | Cc1cc(=O)[nH]c(N2CCN(Cc3ccccc3)CC2)n1 | inconclusive: -33.2%
26 | O=C(N/N=C/C1CC=CCC1)c1ccc(Cl)cc1O (centres undefined) | inconclusive: -61.8%
27 | COc1ccccc1C1C(C(N)=O)=C(C)Nc2ncnn21 (centres undefined) | inconclusive: -45.7%
28 | Clc1cccc(Cl)c1Cn1nnc(-c2cccs2)n1 | inconclusive: -41.6%
29 | COCCNC(=S)N/N=C/c1ccc(OCc2ccc(C(=O)OC)cc2)c(OC)c1 | inconclusive: -48.8%
30 | Cc1ccc(SCCOCCN2CCc3ccccc3C2)cc1 | inactive: -12.3%
31 | CC(C)C1Oc2ccccc2N(CC(=O)NCCCN2C(C)CCCC2C)C1=O (centres undefined) | inconclusive: -43.1%
32 | COc1ccc(N2CC(O)=C(c3nc4ccccc4s3)C2=N)cc1 | inactive: 24.4%
33 | CC1C[C@@]2(NC(=O)NC2=O)C(C)CN1C (some centres undefined) | active: -100%
34 | Cc1nnc(C)n1/N=C/c1ccc(C(=O)O)cc1 | inactive: 10.9%
35 | O=C(CCCCn1c(=S)[nH]c2ccsc2c1=O)NCc1ccco1 | inactive: 40%
36 | CCCCn1cc(C(=O)c2cc(Br)ccc2O)cc(C#N)c1=O | inactive: 46.2%
37 | O=C(COc1ccc(Cl)cc1Cl)NC1CCSC1=O (centres undefined) | inconclusive: -42%
38 | COc1ccccc1CNC(=O)C1(c2ccc(Cl)cc2)CC1 | inconclusive: -48.6%
39 | COc1ccc(Nc2nc(Cl)nc(NCc3ccco3)n2)c(OC)c1 | inconclusive: -38.1%
40 | O=C(c1sc2ccccc2c1Cl)N(Cc1cccs1)C1CCS(=O)(=O)C1 (centres undefined) | inconclusive: -32.1%

Row | Structure (SMILES) | activity change (PNC), negative = inhibition
41 | Cc1ccc(C)c(C(=O)CSc2nnnn2-c2cccnc2)c1 | inconclusive: -47.1%
42 | O=C(CN1C(=O)C2CC=CCC2C1=O)Nc1ccc(S(=O)(=O)NC2=NCCCCC2)cc1 (centres undefined) | inconclusive: -46.5%
43 | CC(C)(C)C(=O)CSc1nc2c(c(-c3cccs3)c1C#N)CCC2 | inconclusive: -76.2%
44 | Cc1ccc(-c2c(C(=O)NCc3ccccc3)oc(=O)c3ccccc23)cc1 | inconclusive: -45.1%
45 | Nc1cccc(-n2nnnc2CN2CCOCC2)c1 | inconclusive: -31.9%
46 | Cc1ccc(-c2nnn(CC(=O)N(Cc3ccccc3F)C(C(=O)NC3CCCC3)c3ccncc3)n2)o1 (centres undefined) | inactive: 9.41%
47 | COCCn1c(=O)[nH]c2cc(C(=O)NCc3cccnc3)ccc2c1=O | active: -86.1%
48 | Cc1oc(-c2ccccc2F)nc1CS(=O)(=O)CC(=O)N1CCCCCC1 | inconclusive: -31.2%
49 | COc1ccccc1N1CCN(C2CCN(C(=O)c3cccs3)CC2)CC1 | active: -119%
50 | O=C(NCc1ccccc1)c1ccc(Cl)cc1[N+](=O)[O-] | inactive: 35.4%
51 | COc1ccc(CNC(=O)C(C#N)c2nc3ccccc3nc2N2CCCC2)cc1 (centres undefined) | inconclusive: -40.7%
52 | COc1cccc(C(=O)CN2CCC(NC(=O)NC3CCCCC3)CC2)c1 | inactive: 40.1%
53 | C(=Nc1ccc(Nc2ccccc2)cc1)c1ccc2ccccc2c1 | active: -82.5%
54 | CC(C)c1nc2ccccc2c2nnc(SCC(=O)NCc3ccco3)n12 | inactive: 49.9%
55 | O=C(CN1C(=O)CCS(=O)(=O)c2ccccc21)Nc1cccc(Cl)c1 | inconclusive: -41.5%
56 | Brc1cccc(-c2nnc3n2CCCCC3)c1 | inactive: -26.3%
57 | Oc1c(Cl)cc(Cl)cc1CNc1ccc(Br)cn1 | inconclusive: -35.8%
58 | O=C(NCc1ccco1)c1cccs1 | inactive: -3.41%
59 | Cc1c(Cl)cccc1NC(CC(=O)c1ccccc1)C(=O)O (centres undefined) | active: -83.3%
